Numbering of substitutions follows the chain as printed. The list shows a part of the results, in another mix than the full data. Calls are pooled over several reports, among them a noisy single-well screen. The list shows a part of the results. Some of the results follow.
Experiments:
Settings in all cases: stereoisomer not certain
OR5K1 (Homo sapiens) = target: T1, OR5K1 (Homo sapiens) (UniProt Q8NHB7)
T1 sequence (whole entry): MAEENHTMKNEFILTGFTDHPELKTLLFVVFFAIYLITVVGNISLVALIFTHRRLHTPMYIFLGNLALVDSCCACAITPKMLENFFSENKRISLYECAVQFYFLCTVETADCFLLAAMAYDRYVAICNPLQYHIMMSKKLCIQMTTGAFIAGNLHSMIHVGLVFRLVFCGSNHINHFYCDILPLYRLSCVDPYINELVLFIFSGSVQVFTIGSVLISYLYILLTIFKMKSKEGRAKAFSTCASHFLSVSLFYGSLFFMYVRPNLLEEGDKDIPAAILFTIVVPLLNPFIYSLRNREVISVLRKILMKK
Method in brief: (§1)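 Each entry records the cell line, G-protein, co-transfected protein and tags used. Methods varied with the source, often transient luciferase assays in mammalian cell lines. A receptor–molecule pair is called responsive (active) if the original authors judged its signal statistically different from baseline and non-responsive (inactive) otherwise.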

Chains of the proteins cited; added tags and fusions are not shown. Chains listed by the source or under a name are the forms on record and can include a tag or linker.
OR5L1, as listed by the source: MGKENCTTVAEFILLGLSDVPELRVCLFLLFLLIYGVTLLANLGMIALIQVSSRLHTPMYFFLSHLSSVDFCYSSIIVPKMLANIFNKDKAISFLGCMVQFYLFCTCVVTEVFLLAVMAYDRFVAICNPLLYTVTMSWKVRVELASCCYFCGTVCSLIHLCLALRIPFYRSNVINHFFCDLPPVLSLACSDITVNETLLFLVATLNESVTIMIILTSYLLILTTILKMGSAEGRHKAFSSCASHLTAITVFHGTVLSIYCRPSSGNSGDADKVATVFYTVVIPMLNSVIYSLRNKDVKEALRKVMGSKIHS

OR5K2 (Homo sapiens) = target: T2, OR5K2 (Homo sapiens) (UniProt Q8NHB8)
T2 sequence (whole entry): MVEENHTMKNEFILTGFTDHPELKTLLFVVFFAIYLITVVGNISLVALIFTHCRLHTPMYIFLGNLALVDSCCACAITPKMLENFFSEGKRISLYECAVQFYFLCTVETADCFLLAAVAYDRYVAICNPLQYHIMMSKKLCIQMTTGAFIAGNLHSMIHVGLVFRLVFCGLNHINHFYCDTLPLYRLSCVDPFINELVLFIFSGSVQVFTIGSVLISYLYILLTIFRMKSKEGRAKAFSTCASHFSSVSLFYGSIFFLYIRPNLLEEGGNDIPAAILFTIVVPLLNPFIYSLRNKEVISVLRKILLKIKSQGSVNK
Method in brief: as §1

OR5K3 = tested on: T3, OR5K3
T3 sequence (whole entry): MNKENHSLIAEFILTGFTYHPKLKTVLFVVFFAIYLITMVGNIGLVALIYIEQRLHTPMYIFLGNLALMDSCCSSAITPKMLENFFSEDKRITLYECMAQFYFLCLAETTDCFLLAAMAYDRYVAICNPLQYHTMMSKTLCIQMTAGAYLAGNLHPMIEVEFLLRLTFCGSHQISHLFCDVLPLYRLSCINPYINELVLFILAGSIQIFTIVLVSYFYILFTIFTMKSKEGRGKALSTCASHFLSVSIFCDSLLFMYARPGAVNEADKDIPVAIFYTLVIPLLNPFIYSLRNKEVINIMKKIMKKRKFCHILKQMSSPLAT
Method in brief: as §1

OR5K4 = tested on: T4, OR5K4
T4 sequence (whole entry): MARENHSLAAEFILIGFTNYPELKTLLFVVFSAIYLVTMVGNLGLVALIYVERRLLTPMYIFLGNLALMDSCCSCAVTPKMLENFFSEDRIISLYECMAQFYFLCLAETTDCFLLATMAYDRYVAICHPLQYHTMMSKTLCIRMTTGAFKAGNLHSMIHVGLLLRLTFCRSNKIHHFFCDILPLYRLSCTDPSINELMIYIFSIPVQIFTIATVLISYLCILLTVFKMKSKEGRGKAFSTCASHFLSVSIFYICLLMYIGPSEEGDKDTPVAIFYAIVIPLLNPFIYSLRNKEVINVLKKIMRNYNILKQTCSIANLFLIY
Method in brief: as §1

OR5L1 (Homo sapiens) = target: T5, OR5L1 (Homo sapiens) (UniProt Q8NGL2)
T5 sequence (whole entry): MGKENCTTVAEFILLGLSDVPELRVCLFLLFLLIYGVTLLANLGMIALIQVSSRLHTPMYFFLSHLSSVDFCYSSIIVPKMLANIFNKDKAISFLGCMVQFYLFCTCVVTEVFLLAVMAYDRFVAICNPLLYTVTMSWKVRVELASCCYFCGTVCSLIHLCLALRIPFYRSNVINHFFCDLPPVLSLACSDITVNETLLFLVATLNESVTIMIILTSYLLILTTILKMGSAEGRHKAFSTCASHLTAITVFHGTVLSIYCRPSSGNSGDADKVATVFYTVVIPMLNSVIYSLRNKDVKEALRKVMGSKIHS
Method in brief: as §1

OR5L1 = tested on: T6, OR5L1
T6 sequence (whole entry): T5 sequence (whole entry) with T240S
Method in brief: as §1

OR5K3 (Homo sapiens) = OR5K3 (Homo sapiens) (UniProt A6NET4)
Method in brief: as §1

OR5K4 (Homo sapiens) = OR5K4 (Homo sapiens) (UniProt A6NMS3)
Method in brief: as §1

Row | Compound | odorant receptor agonist call (OR5K1 (Homo sapiens)) | odorant receptor agonist call (OR5K2 (Homo sapiens)) | odorant receptor agonist call (OR5K3) | odorant receptor agonist call (OR5K4) | odorant receptor agonist call (OR5L1 (Homo sapiens)) | odorant receptor agonist call (OR5L1) | odorant receptor agonist call (OR5K3 (Homo sapiens)) | odorant receptor agonist call (OR5K4 (Homo sapiens))
1 | CC(C)CCC(=O)O | inactive | inactive | inactive | inactive | inactive | inactive |  | 
2 | COC(=O)c1ccccc1O | inactive | inactive | inactive | inactive | inactive | inactive |  | 
3 | CC(C)(C)c1ccc(CCC=O)cc1 | inactive | inactive | inactive | inactive | inactive | inactive |  | 
4 | C=C(C)C1CC=C(C)C(=O)C1 (stereo not drawn) | inactive |  |  |  |  |  |  | 
5 | CC(=O)OC1CC2CCC1(C)C2(C)C (stereo not drawn) | inactive | inactive | inactive | inactive | inactive | inactive |  | 
6 | CCCCCCCOC(C)=O | inactive | inactive | inactive | inactive | inactive | inactive |  | 
7 | CCCCCCCCCC=O | inactive | inactive | inactive | inactive | inactive | inactive |  | 
8 | CCCC(=O)O | inactive | inactive | inactive | inactive | inactive | inactive |  | 
9 | CC(=O)OC(C)(C)C1CC=C(C)CC1 (stereo not drawn) | inactive | inactive | inactive | inactive | inactive | inactive |  | 
10 | CCCCCCCCOC(C)=O | inactive | inactive | inactive | inactive | inactive | inactive |  | 
11 | O=C1CCCCCCCCCCCC(=O)OCCO1 | inactive | inactive | inactive | inactive | inactive | inactive |  | 
12 | CCCCCCCCC=O | inactive |  |  |  |  |  |  | 
13 | C=CCc1ccc(O)c(OC)c1 | inactive |  |  |  |  |  |  | 
14 | CCCCCCCC=O | inactive | inactive | inactive | inactive | inactive | inactive |  | 
15 | C=CCSCC=C | inactive | inactive | inactive | inactive | inactive | inactive |  | 
16 | CCC=CCCO | inactive | inactive | inactive | inactive | inactive | inactive |  | 
17 | C=CC(C)(O)CCC=C(C)C (stereo not drawn) | inactive | inactive | inactive | inactive | inactive | inactive |  | 
18 | CC12C=CCC1C1CCC3=CC(=O)CCC3(C)C1CC2 (stereo not drawn) | active | inactive | inactive | inactive | inactive | inactive |  | 
19 | COc1ccccc1O | inactive | inactive | inactive | inactive | inactive | inactive |  | 
20 | CC(C)C=O | inactive | inactive | inactive | inactive | inactive | inactive |  | 
21 | C=CCc1ccc(OC)c(OC)c1 | active | inactive | inactive | inactive | inactive | inactive | inactive | inactive
22 | CCCCCCCCCCC=O | inactive | inactive | inactive | inactive | inactive | inactive |  | 
23 | CC(C)C(=O)O | inactive | inactive | inactive | inactive | inactive | inactive |  | 
24 | COc1cc(C)ccc1O | inactive | inactive | inactive | inactive | inactive | inactive |  | 
25 | C=CCc1ccc(OC(C)=O)c(OC)c1 | inactive | inactive | inactive | active | inactive | active |  | 
26 | CC1=CCC(C(C)(C)O)CC1 (stereo not drawn) | inactive | inactive | inactive | inactive | inactive | inactive |  | 

Just odorant receptor agonist call (OR5L1), for some of the entries so far:

| Row | Compound | odorant receptor agonist call (OR5L1) |
| --- | --- | --- |
| 14 | CCCCCCCC=O | inactive |
| 23 | CC(C)C(=O)O | inactive |

— the M2OR odorant receptor database
